Reference: patent publication US20240358834A1 (University of Pennsylvania, published 2024)
These are yes or no findings as the source states them, for the method shown. Some entries that bind do so weakly or less than the wild type.

Chains of the proteins cited; added tags and fusions are not shown. Residues count along the entry.
UniProt P15391, residues 20-291: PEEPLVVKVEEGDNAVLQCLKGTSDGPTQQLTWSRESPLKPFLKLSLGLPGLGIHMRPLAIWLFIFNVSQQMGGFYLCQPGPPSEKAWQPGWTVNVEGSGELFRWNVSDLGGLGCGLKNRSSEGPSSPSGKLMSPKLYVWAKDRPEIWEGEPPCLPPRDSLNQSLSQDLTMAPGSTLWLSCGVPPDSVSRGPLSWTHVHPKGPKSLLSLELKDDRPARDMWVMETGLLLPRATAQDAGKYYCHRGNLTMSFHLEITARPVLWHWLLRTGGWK

Target: human CD19 protein with a biotinylated AviTag (Acrobiosystems) (human) (UniProt P15391)
Experiment: phage ELISA of individual clones on CD19

binding: binds
B1: scFv 40 (scFv)
scFv: QSVLTQPPSVSGSLGQKVTISCTGSSSSVGTHYVGWYQIPPGIGPRTVIYNNDYRPSGVPDRFSGSKSGNSATLTISGLQAEDEADYYCSSWDDSLGAYVLGSGTQLTILGGGSSRSSSSGGGGSGGGGELTLQESGPGLVKPSQTLSLTCAVSGGSVIRGYYWTWIRQRPGRGLEWMGYWAGSTDYNPAFQGRIFITAGTAKNQFSLEMTSMTTDDTAIYYCVGSLRGGWLFDNWGQGTLVTVSSASTTAPSVTSGQAGQHHHHHHGAYPYDVPDYAS
notes: Canine scFv (VL-linker-VH); also called P3-59B
